The record followed here is paper PMC4666417.

Assay [1] concerns the target eEF1A1 (eukaryotic elongation factor 1 subunit A1), MYC/DDK-tagged (human) (UniProt P68104). Kind of assay: BLI; biotinylated eEF1 subunit (eEF1A1, eEF1B, eEF1D or eEF1G) immobilised on streptavidin biosensor; RT subunits, RT heterodimer, Gag or RTp66 mutants as analytes at 90, 30 and 10 nM (mutants at 90 nM); kinetic buffer 1 mM phosphate, 15 mM NaCl, 0.002% Tween-20, 0.1 mg/ml gelatine, 1000 rpm, OctetRed; both purified. Background: Biolayer interferometry detects binding as a change in optical thickness at a sensor tip.

In assay [2] the target is eEF1A, endogenous in HEK293T cells (human (endogenous in HEK293T)) (UniProt P68104). Kind of assay: co-IP; HEK293T lysates (S100 buffer) with FLAG- or V5-tagged HIV-1 proteins; endogenous eEF1A captured with rabbit anti-eEF1A antibody on Protein G beads, 2 h at 4°C, washed with S100 buffer plus 0.1% Triton X-100; blot with anti-FLAG or anti-V5; also lysates incubated with 1 nM Did B, 100 nM CHX or DMSO (Fig 7A).

Results are given in words; binding and its absence hold for the method and conditions named. For some assays here: Binding seen in cells or lysates may run through a third protein. Some binding calls cover weakened binding; strength is not graded here.

For “recombinant 6×His RTp66, wild type (pDEST 40, BL21 AI) (from UniProt P04585 588-1147)”, in assay [1], the binding result is “binds”.

Turning to “RTp66-FLAG (from UniProt P04585 588-1147)”, in assay [2], the binding result is given as “binds”.
